# The list shows a part of the results. Further columns of the screen follow, without active or inactive calls. The list favours compounds with an active or inconclusive main result. The note in brackets gives the kind of curve behind each potency; many fits are weak.
# Assay: IkB Signaling
# Conditions: ABC-DLBCL IkBa-CBG/CBR dual luciferase ratio (green luciferase fused to IkBa over red control in OCI-Ly3 lymphoma cells), 4 h
# How it was run: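 Luminescence ratio of IκBα-fused green versus native red beetle luciferase in OCI-Ly3 cells, 4 h post-doxycycline with compound; red signal alone, scaled from basal (0%) to zero light (-100%), flagged nonspecific or cytotoxic effects.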
# [1] = measured here: control luc red channel unless noted
compound,measurement,setting,value
CCOc1cccc(CNCCNC(=O)c2nonc2N)c1,AC50,[1],"3.16 µM [rising, partial curve]"
Cc1ccc(Cl)cc1-n1c(=O)c2sc3ccccc3c2n(CC(=O)NC2CCCCC2)c1=O,AC50,[1],"12.6 µM [falling, single point]"
Cc1cccc(C)c1NC(=O)c1nc(S(C)(=O)=O)ncc1N(Cc1ccc(F)cc1)Cc1ccco1,AC50,[1],"12.6 µM [falling, partial curve]"
COc1cccc(CNC(=O)CN2C(=O)CSc3c2c(C)nn3-c2ccccc2)c1OC,AC50,[1],"25.1 µM [falling, single point]"
NC1=NC(c2ccccc2Cl)n2c(nc3ccccc32)N1 (centres undefined),AC50,[1],"1.58 µM [falling, full curve]"
Cc1cc(-c2ccc(C)c(S(=O)(=O)Nc3ccccc3C(F)(F)F)c2)on1,AC50,[1],"31.6 µM [falling, single point]"
COc1ccc(C(=O)N(Cc2ccc(N(C)C)cc2)Cc2ccco2)cc1Cl,AC50,[1],"31.6 µM [falling, partial curve]"
Cc1ccc(C)n1-c1c(C(=O)NCC(C)c2ccccc2)sc2ncccc12 (centres undefined),AC50,[1],"12.6 µM [falling, partial curve]"
Cc1ccccc1-n1nnnc1SCc1ncc(-c2ccccc2)o1,AC50,[1],"31.6 µM [falling, partial curve]"
CC(C(=O)NCc1ccccc1Cl)n1ccc2cc(S(=O)(=O)N3CCCCC3)ccc21 (centres undefined),AC50,[1],"10 µM [falling, partial curve]"
Cc1ccc(-n2ncc(C(=O)NCCCN3CCCCC3)c2C2CCN(C(=O)OC(C)(C)C)CC2)c(C)c1,AC50,[1],"2 µM [falling, partial curve, poor fit]"
CCc1cccc(C)c1NC(=O)CCCn1c(=O)c2cccn2c2cccnc21,AC50,[1],"3.98 µM [rising, partial curve, poor fit]"
Cc1[nH]nc2ncc(C(=O)c3ccccc3O)cc12,AC50,[1],"15.8 µM [falling, partial curve]"
CCC1CCCCN1C(=O)COC(=O)c1cc2ccccc2cc1O (centres undefined),AC50,[1],"25.1 µM [falling, partial curve]"
c1nc(N2CCC3(CC2)OCCO3)c2c3c(sc2n1)CCCC3,AC50,[1],"20 µM [falling, partial curve]"
Cc1cccc(Cn2ccn(Cc3ccc(Cl)cc3)c(=O)c2=O)c1,AC50,[1],"31.6 µM [falling, single point]"
O=C(CSc1nc(-c2cccc(Cl)c2)nc2cc(=O)[nH]n12)Nc1ccccc1,AC50,[1],"25.1 µM [falling, partial curve]"
CCN(CC)C(=O)c1sc(NC(=O)c2nc3ncccn3n2)c(C(=O)OC)c1C,AC50,[1],"3.16 µM [rising, partial curve] [measured here: IkB-luc green channel]"
Cc1occc1C(=O)N1CCN(C(c2ccccc2)c2ccccc2)CC1,AC50,[1],"20 µM [falling, partial curve]"
Cc1oc2cc3c(C(=O)N4CCCCC4)c(C)oc3cc2c1C(=O)N1CCCCC1,AC50,[1],"25.1 µM [falling, partial curve]"
Cc1ccc(C2c3c(-c4cc(C)ccc4O)n[nH]c3C(=O)N2Cc2ccco2)cc1 (centres undefined),AC50,[1],"39.8 µM [falling, single point]"
O=C(Nc1cccc2cccnc12)c1ccccc1[N+](=O)[O-],AC50,[1],"0.398 µM [rising, full curve, poor fit]"
COc1cccc(Cn2c(=O)n(CC3CCC(C(=O)N4CCCCC4)CC3)c(=O)c3sccc32)c1 (centres undefined),AC50,[1],"39.8 µM [falling, single point]"
COc1ccccc1N1CCN(C(=O)C2CCN(S(=O)(=O)c3c(C)noc3/C=C/c3ccc(C)cc3)CC2)CC1,AC50,[1],"25.1 µM [falling, single point]"
Cc1ccc(C)n1NC(=O)c1cccs1,AC50,[1],"1.58 µM [falling, partial curve]"
Cc1cc(C)cc(-n2c(SCC(=O)NCc3ccco3)nc3c([nH]c4ccccc43)c2=O)c1,AC50,[1],"1 µM [rising, partial curve]"
COc1cccc(NC(=O)CSc2nnc(COc3ccc(Cl)cc3)o2)c1,AC50,[1],"12.6 µM [falling, partial curve]"
CCOC(=O)c1cc(-c2ccc(C)cc2)n(CCC(=O)Nc2nc3c(C)cccc3s2)c1C,AC50,[1],"3.16 µM [falling, partial curve]"
COc1ccc(-c2ccc(-c3noc(-c4ccccc4)n3)c(OC)n2)cc1,AC50,[1],"2.51 µM [falling, full curve, poor fit]"
Cc1ccc2c(c1)c(=O)c1ccccc1n2CCCC(=O)Nc1ccc(C)c(F)c1,AC50,[1],"3.16 µM [falling, full curve]"
CCCCCC(=O)N1c2ccccc2C(C)(c2ccccc2)CC1(C)C (centres undefined),AC50,[1],"12.6 µM [falling, partial curve, poor fit]"
COc1ccc(C(=O)Oc2ccc3c(c2)OCO3)cc1OC,AC50,[1],"1.26 µM [rising, partial curve]"
COc1ccc(Cn2c(C(=O)O)c(CNCC(C)c3ccccc3)c3ccc(OC)cc32)cc1 (centres undefined),AC50,[1],"15.8 µM [falling, single point]"
Cc1ccc(C)c(N2CCN(C(=O)Nc3cn(CC(C)C)c(=O)c4ccccc34)CC2)c1,AC50,[1],"25.1 µM [falling, single point]"
O=c1c2ccccc2nc(SCc2cccc(F)c2)n1Cc1ccco1,AC50,[1],"10 µM [falling, partial curve]"
Cc1cccc(N2CCN(S(=O)(=O)c3ccc4c(c3)C(C(C)C)C(=O)N4)CC2)c1C (centres undefined),AC50,[1],"12.6 µM [falling, partial curve]"
Cc1ccc(-c2nnc(SCC(=O)c3ccc(Cl)cc3)n2-c2ccccc2)cc1,AC50,[1],"0.794 µM [rising, full curve, poor fit]"
COc1cccc(CN2CCCN(CC(=O)Nc3ccc4c(c3)OCCO4)S2(=O)=O)c1,AC50,[1],"15.8 µM [falling, partial curve]"
Cc1nc2nc(NC(=O)c3ccc(C(C)(C)C)cc3)[nH]n2c(=O)c1Cl,AC50,[1],"12.6 µM [falling, partial curve]"
Cc1oc(-c2ccccc2F)nc1CSCC(=O)N1CCN(c2ccccc2)CC1,AC50,[1],"20 µM [falling, partial curve]"
c1ccc(N(c2ccccc2)c2nc(-n3ccnc3)nc(-n3ccnc3)n2)cc1,AC50,[1],"10 µM [falling, partial curve]"
O=C(Nc1cccc(O)c1)c1cc2nc(-c3ccc(Br)cc3)cc(C(F)(F)F)n2n1,AC50,[1],"0.631 µM [falling, full curve]"
COC(=O)CN(n1cnnc1)S(=O)(=O)c1ccccc1,AC50,[1],"25.1 µM [rising, partial curve] [measured here: IkB-luc green channel]"
COc1ccc(N2CCN(C(=O)CSc3c4c(nc5ccc(Cl)cc35)CCCC4)CC2)cc1,AC50,[1],"10 µM [falling, partial curve]"
COc1ccccc1-c1ccc(C(=O)O)o1,AC50,[1],"5.01 µM [falling, full curve, poor fit]"
Cc1ccccc1CNc1nc(N(C)C)nc2c1cnn2C,AC50,[1],"20 µM [falling, single point]"
Cc1ccc(NC(=O)C2CCN(S(=O)(=O)c3ccc4[nH]c(=O)ccc4c3)CC2)cc1C,AC50,[1],"31.6 µM [falling, single point]"
CCOc1ccc(CCNC(=O)Cn2c(-c3cccs3)cc3cc(F)ccc32)cc1OCC,AC50,[1],"10 µM [falling, partial curve]"
CCCc1cc(N2CCN(c3ccccc3)CC2)n2cnnc2n1,AC50,[1],"31.6 µM [falling, single point]"
CCc1ccc(CN(Cc2ccco2)c2cnc(S(C)(=O)=O)nc2C(=O)Nc2c(C)cccc2C)cc1,AC50,[1],"12.6 µM [falling, single point]"
CCc1ccccc1NCc1nnc2n1CCCCC2,AC50,[1],"0.00631 µM [falling, full curve]"
Cc1cc(C)nc(N(C#N)CC(=O)c2ccccc2)n1,AC50,[1],"25.1 µM [falling, single point]"
Clc1ccc(CCNc2nc3ccccc3c3nc(-c4ccccc4)nn23)cc1,AC50,[1],"20 µM [falling, partial curve]"
Cc1ccc(C(=O)N(Cc2ccco2)Cc2ccco2)cc1,AC50,[1],"39.8 µM [falling, single point]"
CCOc1ccc(NC(=O)Cn2cc(C(=O)c3cccs3)c3ccccc32)cc1,AC50,[1],"7.94 µM [falling, partial curve]"
COc1cccc(CCNC(=O)c2cnc3sc(N4CCCCCC4)nn3c2=O)c1,AC50,[1],"25.1 µM [falling, single point]"
Clc1ccc(OCCCc2nc(-c3cccnc3)no2)c(Cl)c1,AC50,[1],"39.8 µM [falling, single point]"
COc1ccc(S(=O)(=O)c2c(Nc3c(C)cccc3C)sc(C(=O)c3ccc4c(c3)OCO4)c2N)cc1,AC50,measured here: IkB-luc green channel,"3.98 µM [rising, single point]"
same,AC50,measured here: control luc red channel,"2.51 µM [rising, full curve]"
Cc1cccc(Nc2nc(N)nc(CN3CCN(c4ccc(F)cc4)CC3)n2)c1,AC50,[1],"10 µM [falling, partial curve]"
O=C(CSc1nnc(CNc2ccc(F)cc2)n1Cc1ccco1)N1CCCC1,AC50,[1],"39.8 µM [falling, partial curve]"
CS(=O)(=O)c1ncc(Cl)c(C(=O)Nc2c(C(=O)Nc3ccccc3)oc3ccccc23)n1,AC50,[1],"5.01 µM [falling, full curve]"
Cc1cccc(Nc2ncc(NC(=O)c3cccc(F)c3)c(Nc3cccc(C)c3)n2)c1,AC50,[1],"20 µM [falling, partial curve, poor fit]"
NS(=O)(=O)c1ccc(CCNC(=O)c2ccc3nc(CCc4ccccc4)oc3c2)cc1,AC50,[1],"0.0631 µM [rising, full curve, poor fit]"

# In another format: entries from further up.
compound | measurement | setting | value
COC(=O)CN(n1cnnc1)S(=O)(=O)c1ccccc1 | AC50 | [1] | 25.1 µM [rising, partial curve] [measured here: IkB-luc green channel]
COc1ccc(N2CCN(C(=O)CSc3c4c(nc5ccc(Cl)cc35)CCCC4)CC2)cc1 | AC50 | [1] | 10 µM [falling, partial curve]
COc1ccccc1-c1ccc(C(=O)O)o1 | AC50 | [1] | 5.01 µM [falling, full curve, poor fit]
Cc1ccccc1CNc1nc(N(C)C)nc2c1cnn2C | AC50 | [1] | 20 µM [falling, single point]
Cc1ccc(NC(=O)C2CCN(S(=O)(=O)c3ccc4[nH]c(=O)ccc4c3)CC2)cc1C | AC50 | [1] | 31.6 µM [falling, single point]
CCOc1ccc(CCNC(=O)Cn2c(-c3cccs3)cc3cc(F)ccc32)cc1OCC | AC50 | [1] | 10 µM [falling, partial curve]
